Assay results published in article doi:10.1101/2022.10.13.511954 (bioRxiv, 2022).
Results are given in words; binding and its absence hold for the method and conditions named. In cells and extracts the contact can be indirect. Some results given as binding are weak or reduced against the parent protein; the word gives no strength.

Amino acid sequences for entries named in this document (tags omitted). A change or cut given only in a name is not applied to a line headed by its entry. Residues count along the entry.
UniProt P70211, 26-1447: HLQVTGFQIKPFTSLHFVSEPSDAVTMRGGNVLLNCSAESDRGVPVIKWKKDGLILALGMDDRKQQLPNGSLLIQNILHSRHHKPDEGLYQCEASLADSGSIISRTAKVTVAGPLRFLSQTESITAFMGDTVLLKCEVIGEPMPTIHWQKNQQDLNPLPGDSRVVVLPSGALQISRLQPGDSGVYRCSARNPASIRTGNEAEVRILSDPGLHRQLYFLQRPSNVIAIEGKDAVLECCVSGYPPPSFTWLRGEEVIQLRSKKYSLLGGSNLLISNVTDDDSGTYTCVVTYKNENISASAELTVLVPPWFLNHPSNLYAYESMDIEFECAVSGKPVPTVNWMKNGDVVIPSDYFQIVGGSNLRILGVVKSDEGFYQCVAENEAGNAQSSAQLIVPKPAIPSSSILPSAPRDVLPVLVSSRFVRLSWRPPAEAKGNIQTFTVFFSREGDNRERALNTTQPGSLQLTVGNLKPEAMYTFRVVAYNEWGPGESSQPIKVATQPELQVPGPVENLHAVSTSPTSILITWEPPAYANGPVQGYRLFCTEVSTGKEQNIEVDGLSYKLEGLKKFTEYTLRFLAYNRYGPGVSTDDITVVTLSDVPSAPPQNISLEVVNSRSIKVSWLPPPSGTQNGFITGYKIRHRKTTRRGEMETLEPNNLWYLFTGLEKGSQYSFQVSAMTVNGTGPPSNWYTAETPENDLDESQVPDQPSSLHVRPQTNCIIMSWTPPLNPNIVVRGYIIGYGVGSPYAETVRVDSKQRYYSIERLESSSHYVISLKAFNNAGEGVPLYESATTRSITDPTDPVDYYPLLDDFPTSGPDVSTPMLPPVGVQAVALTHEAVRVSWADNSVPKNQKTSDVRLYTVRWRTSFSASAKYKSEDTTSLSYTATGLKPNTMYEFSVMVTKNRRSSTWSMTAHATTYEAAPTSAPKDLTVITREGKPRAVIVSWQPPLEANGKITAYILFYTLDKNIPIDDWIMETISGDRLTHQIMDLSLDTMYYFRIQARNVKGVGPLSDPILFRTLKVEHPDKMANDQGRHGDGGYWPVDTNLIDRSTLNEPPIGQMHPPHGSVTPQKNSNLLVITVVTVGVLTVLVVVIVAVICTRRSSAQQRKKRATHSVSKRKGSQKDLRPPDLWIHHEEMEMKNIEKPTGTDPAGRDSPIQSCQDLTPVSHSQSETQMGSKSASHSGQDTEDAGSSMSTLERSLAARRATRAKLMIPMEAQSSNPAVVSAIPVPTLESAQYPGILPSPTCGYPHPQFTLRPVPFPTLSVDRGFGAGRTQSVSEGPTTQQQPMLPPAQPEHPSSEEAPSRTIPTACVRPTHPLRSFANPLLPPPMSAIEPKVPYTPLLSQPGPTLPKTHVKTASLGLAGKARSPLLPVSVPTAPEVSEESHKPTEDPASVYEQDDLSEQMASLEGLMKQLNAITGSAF
UniProt Q92558, whole entry: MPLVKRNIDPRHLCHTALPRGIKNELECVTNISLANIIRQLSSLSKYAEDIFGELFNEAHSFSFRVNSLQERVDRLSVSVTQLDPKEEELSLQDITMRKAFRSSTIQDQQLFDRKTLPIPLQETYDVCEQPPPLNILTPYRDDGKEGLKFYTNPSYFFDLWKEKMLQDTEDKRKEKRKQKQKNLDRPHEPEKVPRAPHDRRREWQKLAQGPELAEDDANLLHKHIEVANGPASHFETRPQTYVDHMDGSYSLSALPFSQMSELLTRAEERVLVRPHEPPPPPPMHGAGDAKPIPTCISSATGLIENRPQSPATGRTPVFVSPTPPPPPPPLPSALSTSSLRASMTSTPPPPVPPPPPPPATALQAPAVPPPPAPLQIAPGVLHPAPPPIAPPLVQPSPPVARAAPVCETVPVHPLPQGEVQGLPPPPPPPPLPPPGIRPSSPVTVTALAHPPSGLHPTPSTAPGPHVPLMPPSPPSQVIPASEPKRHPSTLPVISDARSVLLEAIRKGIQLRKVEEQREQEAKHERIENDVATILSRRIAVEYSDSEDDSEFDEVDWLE
UniProt Q5SQX6, whole entry: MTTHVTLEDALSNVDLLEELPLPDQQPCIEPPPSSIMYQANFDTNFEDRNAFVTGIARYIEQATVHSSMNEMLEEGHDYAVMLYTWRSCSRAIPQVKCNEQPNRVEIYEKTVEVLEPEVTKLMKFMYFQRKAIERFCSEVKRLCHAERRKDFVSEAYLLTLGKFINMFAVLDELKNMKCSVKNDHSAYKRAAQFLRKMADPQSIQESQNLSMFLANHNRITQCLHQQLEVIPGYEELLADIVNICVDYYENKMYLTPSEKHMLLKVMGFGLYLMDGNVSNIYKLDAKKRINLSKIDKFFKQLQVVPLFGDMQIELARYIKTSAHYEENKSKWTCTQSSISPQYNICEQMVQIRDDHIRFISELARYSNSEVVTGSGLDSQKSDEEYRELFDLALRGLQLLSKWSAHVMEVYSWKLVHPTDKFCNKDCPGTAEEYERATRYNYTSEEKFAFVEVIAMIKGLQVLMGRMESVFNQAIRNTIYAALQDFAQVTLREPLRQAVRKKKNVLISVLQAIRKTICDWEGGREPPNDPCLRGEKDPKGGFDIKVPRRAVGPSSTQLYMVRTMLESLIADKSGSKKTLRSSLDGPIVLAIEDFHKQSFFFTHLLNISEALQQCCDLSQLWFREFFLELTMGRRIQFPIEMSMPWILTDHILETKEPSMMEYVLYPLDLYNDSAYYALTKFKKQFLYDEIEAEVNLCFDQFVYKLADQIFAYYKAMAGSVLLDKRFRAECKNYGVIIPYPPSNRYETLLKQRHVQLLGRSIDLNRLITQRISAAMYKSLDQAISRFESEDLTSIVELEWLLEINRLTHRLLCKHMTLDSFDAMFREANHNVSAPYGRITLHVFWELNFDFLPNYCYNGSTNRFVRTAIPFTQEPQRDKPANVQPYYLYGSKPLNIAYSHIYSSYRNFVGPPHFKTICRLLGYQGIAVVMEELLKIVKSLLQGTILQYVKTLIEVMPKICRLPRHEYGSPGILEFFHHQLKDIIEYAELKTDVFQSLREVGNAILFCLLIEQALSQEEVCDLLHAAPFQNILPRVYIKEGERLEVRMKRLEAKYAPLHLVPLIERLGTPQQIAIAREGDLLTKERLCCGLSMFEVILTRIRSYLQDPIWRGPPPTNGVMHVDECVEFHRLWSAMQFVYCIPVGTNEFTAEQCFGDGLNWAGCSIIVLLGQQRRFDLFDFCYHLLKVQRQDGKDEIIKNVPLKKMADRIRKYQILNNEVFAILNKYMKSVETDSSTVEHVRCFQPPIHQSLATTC
UniProt P43146, whole entry, looked up, stated change not applied: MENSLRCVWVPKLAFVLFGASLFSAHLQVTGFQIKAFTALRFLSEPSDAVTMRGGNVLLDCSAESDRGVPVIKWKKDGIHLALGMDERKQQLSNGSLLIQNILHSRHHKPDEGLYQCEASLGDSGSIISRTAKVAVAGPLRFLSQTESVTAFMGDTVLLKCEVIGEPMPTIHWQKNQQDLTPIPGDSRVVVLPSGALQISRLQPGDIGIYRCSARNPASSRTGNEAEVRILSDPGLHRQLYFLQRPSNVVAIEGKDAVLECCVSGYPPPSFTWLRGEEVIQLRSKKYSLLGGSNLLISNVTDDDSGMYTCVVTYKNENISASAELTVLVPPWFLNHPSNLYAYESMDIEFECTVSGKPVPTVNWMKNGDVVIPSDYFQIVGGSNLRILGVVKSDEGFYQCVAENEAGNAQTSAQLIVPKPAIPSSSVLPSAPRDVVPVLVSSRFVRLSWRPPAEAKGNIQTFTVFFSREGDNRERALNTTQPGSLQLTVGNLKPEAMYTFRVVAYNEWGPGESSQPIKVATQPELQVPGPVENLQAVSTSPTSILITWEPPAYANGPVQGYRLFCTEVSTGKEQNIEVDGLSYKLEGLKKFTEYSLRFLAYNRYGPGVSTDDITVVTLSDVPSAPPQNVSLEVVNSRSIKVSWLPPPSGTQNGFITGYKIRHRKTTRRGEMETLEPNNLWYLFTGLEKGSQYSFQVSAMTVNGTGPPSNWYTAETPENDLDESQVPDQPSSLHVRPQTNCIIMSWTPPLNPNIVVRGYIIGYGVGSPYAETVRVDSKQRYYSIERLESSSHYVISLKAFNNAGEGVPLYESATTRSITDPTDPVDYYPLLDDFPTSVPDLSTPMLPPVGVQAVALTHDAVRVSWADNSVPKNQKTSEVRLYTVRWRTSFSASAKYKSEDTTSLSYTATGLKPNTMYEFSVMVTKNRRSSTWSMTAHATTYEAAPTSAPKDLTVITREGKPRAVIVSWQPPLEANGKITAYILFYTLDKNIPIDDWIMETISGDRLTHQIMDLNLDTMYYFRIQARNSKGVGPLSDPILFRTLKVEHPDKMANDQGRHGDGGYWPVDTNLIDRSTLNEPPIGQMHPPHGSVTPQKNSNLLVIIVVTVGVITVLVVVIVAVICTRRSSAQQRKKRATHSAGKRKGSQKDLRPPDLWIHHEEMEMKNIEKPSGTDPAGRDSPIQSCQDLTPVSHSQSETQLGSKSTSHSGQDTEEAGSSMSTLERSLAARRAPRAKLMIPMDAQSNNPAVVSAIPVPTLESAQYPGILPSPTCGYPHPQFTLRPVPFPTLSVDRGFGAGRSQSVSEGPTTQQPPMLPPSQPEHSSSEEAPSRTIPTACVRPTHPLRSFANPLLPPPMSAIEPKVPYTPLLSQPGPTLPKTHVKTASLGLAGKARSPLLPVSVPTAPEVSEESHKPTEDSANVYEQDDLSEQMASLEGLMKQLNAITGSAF
UniProt P43146, 26-1447: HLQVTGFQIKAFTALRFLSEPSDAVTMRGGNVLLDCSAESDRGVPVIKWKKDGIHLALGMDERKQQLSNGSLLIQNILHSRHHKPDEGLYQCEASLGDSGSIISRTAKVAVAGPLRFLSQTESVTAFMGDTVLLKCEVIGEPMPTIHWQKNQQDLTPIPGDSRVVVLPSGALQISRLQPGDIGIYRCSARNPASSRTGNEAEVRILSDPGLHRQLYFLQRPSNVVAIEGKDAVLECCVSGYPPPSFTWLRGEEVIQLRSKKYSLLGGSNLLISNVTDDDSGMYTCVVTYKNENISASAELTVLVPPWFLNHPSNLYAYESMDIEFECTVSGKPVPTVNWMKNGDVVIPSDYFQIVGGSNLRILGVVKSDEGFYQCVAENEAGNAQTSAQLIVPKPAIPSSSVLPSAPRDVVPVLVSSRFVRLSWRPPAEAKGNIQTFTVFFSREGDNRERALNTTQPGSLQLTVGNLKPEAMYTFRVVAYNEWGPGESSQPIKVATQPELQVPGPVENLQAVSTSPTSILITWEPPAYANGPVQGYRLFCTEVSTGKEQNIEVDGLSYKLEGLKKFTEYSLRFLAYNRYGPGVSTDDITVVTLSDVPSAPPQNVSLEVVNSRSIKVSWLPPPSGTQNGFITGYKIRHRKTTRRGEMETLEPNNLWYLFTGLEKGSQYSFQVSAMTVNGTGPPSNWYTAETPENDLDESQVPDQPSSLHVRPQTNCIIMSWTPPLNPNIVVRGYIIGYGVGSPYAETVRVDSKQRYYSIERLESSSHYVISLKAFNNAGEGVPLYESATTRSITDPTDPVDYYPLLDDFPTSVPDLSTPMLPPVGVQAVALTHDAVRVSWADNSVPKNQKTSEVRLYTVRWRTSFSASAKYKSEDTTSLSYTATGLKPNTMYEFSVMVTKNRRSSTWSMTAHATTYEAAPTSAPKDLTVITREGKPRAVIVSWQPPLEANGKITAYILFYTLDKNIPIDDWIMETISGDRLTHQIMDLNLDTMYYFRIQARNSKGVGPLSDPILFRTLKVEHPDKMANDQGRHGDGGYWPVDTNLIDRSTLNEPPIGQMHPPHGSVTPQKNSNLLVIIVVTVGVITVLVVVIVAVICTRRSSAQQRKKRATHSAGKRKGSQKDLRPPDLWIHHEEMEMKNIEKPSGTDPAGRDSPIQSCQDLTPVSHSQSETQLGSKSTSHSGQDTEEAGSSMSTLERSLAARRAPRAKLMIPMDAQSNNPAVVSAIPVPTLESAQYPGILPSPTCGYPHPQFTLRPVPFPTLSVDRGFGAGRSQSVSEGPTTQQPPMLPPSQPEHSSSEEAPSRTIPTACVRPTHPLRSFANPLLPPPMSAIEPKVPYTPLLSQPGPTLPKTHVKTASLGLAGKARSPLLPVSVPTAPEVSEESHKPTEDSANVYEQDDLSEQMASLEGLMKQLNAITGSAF

Tests used:
[1] = molecular target: Dcc, endogenous in commissural neurons (not stated (endogenous in rodent commissural neurons, rat or mouse)) (UniProt P70211); assay: proximity ligation
[2] = molecular target: FLAG-tagged WAVE1 (pcDNA3-Human WAVE1-Flag) (human) (UniProt Q92558); assay: co-IP

binding [1]	binding [2]	Substance
binds	–	Cyfip2 subunit of the WRC, endogenous in commissural neurons (from UniProt Q5SQX6 1-1253)
–	binds	DCC^R1343H (pcDNA3.1-DCC^R1343H-HA) (from UniProt P43146 26-1447) (receptor)
–	binds	DCC^ΔWIRS (pcDNA3-DCC^ΔWIRS-HA) (from UniProt P43146 26-1447) (receptor)
–	binds	HA-tagged DCC^WT (pcDNA3.1-DCC^WT-HA) (from UniProt P43146 26-1447) (receptor)
